No constants are given. Whether binding was seen depends on the method and setting. In cells and extracts the contact can be indirect. Some entries that bind do so weakly or less than the wild type. Tags and fused reporters may be left off the sequences shown.

Test [1] deals with T1, GST-LASP1 (UniProt Q14847).
T1 sequence: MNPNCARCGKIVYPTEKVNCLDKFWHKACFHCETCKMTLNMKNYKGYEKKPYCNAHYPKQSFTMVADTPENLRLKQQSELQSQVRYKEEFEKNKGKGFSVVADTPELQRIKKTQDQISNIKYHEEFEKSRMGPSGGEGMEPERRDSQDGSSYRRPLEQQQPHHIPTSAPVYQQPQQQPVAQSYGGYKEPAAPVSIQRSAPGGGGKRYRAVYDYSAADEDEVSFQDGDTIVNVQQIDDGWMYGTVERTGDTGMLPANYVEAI
In words: pull-down; GST-LASP1 beads with UACC257 cells; data not shown; only the target purified.

Test [2] deals with T1, GST-LASP1. In words: pull-down; GST-LASP1 beads incubated 2 h with the 20,000xg supernatant of MaMel2 or NHEM homogenate (hypotonic buffer, 4°C lysis), washed three times with PBS, SDS-PAGE and Western blot; only the target purified. Background: A western blot detects proteins with antibodies after separation by electrophoresis.

B1: zyxin (protein, UniProt Q15942 1-572)
chain: MAAPRPSPAISVSVSAPAFYAPQKKFGPVVAPKPKVNPFRPGDSEPPPAPGAQRAQMGRVGEIPPPPPEDFPLPPPPLAGDGDDAEGALGGAFPPPPPPIEESFPPAPLEEEIFPSPPPPPEEEGGPEAPIPPPPQPREKVSSIDLEIDSLSSLLDDMTKNDPFKARVSSGYVPPPVATPFSSKSSTKPAAGGTAPLPPWKSPSSSQPLPQVPAPAQSQTQFHVQPQPQPKPQVQLHVQSQTQPVSLANTQPRGPPASSPAPAPKFSPVTPKFTPVASKFSPGAPGGSGSQPNQKLGHPEALSAGTGSPQPPSFTYAQQREKPRVQEKQHPVPPPAQNQNQVRSPGAPGPLTLKEVEELEQLTQQLMQDMEHPQRQNVAVNELCGRCHQPLARAQPAVRALGQLFHIACFTCHQCAQQLQGQQFYSLEGAPYCEGCYTDTLEKCNTCGEPITDRMLRATGKAYHPHCFTCVVCARPLEGTSFIVDQANRPHCVPDYHKQYAPRCSVCSEPIMPEPGRDETVRVVALDKNFHMKCYKCEDCGKPLSIEADDNGCFPLDGHVLCRKCHTARAQT
For B1, the binding result in test [1] and in test [2] was “binds” in each case.
